{
  "source": "PubChem BioAssay AID485353",
  "about": "(National Center for Advancing Translational Sciences (NCATS), 2010)",
  "note": "In all, about 330,000 compounds went through this assay and about 610 (0.18%) were called active. Inconclusive results, whose numbers are uncertain, are shown with a selection of clear calls. Calls follow the shape of the full dose curve. Where the call is inconclusive, the potency comes from a doubtful curve fit. Potency is read from the fitted curve at half-maximal effect.",
  "data": [
    {"assay": "qHTS of Yeast-based Assay for SARS-CoV PLP; also: nearly all actives have a fitted effect of over 55% in size", "conditions": "S. cerevisiae expressing SARS-CoV PLpro; Potency: growth rescue; series mostly up to 32.9 µM", "values": [
      {"smiles": "O=C(Nc1ccc2c(c1)OCO2)c1cc(-c2ccccc2Cl)on1", "Potency": "inactive"},
      {"smiles": "O=c1cnnc(N/N=C/C2CC=CCC2)[nH]1", "note": "(centres undefined)", "Potency": "inactive"},
      {"smiles": "O=C(CCC(=O)N1CCOc2ccccc21)NC1CCCCCC1", "Potency": "inconclusive: 12.6 µM [activator, single point]"},
      {"smiles": "O=C(NCc1ccco1)C(c1ccco1)N(Cc1cccs1)C(=O)Cn1nnc2ccccc21", "note": "(centres undefined)", "Potency": "inconclusive: 5.01 µM [activator, partial curve]"},
      {"smiles": "COCCSc1nc2c(c(=O)[nH]c(=O)n2C)n1Cc1cccc(C)c1", "Potency": "inconclusive: 20 µM [activator, single point]"},
      {"smiles": "Cc1cc(C)nc(N2CCC(C(=O)NCc3ccco3)CC2)n1", "Potency": "inconclusive: 4.47 µM [activator, single point]"},
      {"smiles": "CCOC(=O)N1CCC(N(CCN(C)C)C(=S)Nc2ccc(OCC)cc2)CC1", "Potency": "inactive"},
      {"smiles": "COc1ccc(Cl)cc1NC(=S)N1CC(C)OC(C)C1", "note": "(centres undefined)", "Potency": "inactive"},
      {"smiles": "Cc1cc(=O)[nH]c(SCCCOc2ccccc2Cl)n1", "Potency": "inconclusive: 20 µM [activator, single point]"},
      {"smiles": "CC(OC(=O)c1ccc2ncsc2c1)C(=O)NCc1ccccc1", "note": "(centres undefined)", "Potency": "inconclusive: 20 µM [activator, single point]"},
      {"smiles": "CN1CCN(c2nc3c(c(=O)[nH]c(=O)n3C)n2Cc2ccccc2F)CC1", "Potency": "inconclusive: 20 µM [activator, single point]"},
      {"smiles": "COc1ccc(/C=N/NC(=O)COc2ccc(Cl)cc2Cl)cc1Cn1nc(C)cc1C", "Potency": "inactive"},
      {"smiles": "CCCCOc1ccccc1C1C(C(=O)OC)=CN(CC)C=C1C(=O)OC", "Potency": "inactive"},
      {"smiles": "C=CCn1c(=NC(=O)c2sc3ccccc3c2Cl)sc2cc(S(N)(=O)=O)ccc21", "Potency": "inconclusive: 3.16 µM [activator, full curve, poor fit]"},
      {"smiles": "CCN(CCN1CCCC1)C(=O)c1cc(COc2ccccc2SC)on1", "Potency": "inactive"},
      {"smiles": "Oc1ccc(/C=N/NC(=S)Nc2cccnc2)c(O)c1", "Potency": "inconclusive: 2 µM [activator, full curve]"},
      {"smiles": "CCOC(=O)c1cnc(Nc2nc3ccccc3o2)nc1CSC(=S)N(CC)CC", "Potency": "inconclusive: 20 µM [activator, single point]"},
      {"smiles": "CCNc1nc(NCC)n2c(SCC(=O)NCC3CCCCC3)nnc2n1", "Potency": "inconclusive: 2.82 µM [activator, partial curve]"},
      {"smiles": "CCCCOC(=O)Nc1ccc(OC)cc1S(=O)(=O)N1CCOCC1", "Potency": "inconclusive: 11.2 µM [activator, single point]"},
      {"smiles": "CS/C(=N\\S(=O)(=O)c1cccs1)Nc1ccc(Br)cc1F", "Potency": "inactive"},
      {"smiles": "O=[N+]([O-])c1cc(CN2CCCC2)c2cccnc2c1O", "Potency": "inconclusive: 22.4 µM [activator, single point]"},
      {"smiles": "Cc1ccc(S(=O)(=O)N2CCOCC2)s1", "Potency": "inconclusive: 3.98 µM [activator, full curve]"},
      {"smiles": "O=C(CSc1nnc(-c2ccccn2)o1)Nc1ccc(F)cc1", "Potency": "inactive"},
      {"smiles": "COc1ccc(CN2CCN(Cc3ccco3)CC2)cc1OC", "Potency": "inconclusive: 2 µM [activator, full curve, poor fit]"},
      {"smiles": "Cc1ccc(-c2[nH]c3cc(C(=O)NCCCn4ccnc4)ccc3c(=O)c2O)cc1", "Potency": "inconclusive: 2.51 µM [activator, partial curve]"},
      {"smiles": "COC(=O)c1c(NC(=O)c2ccco2)sc(C(=O)N(C)C)c1C", "Potency": "inconclusive: 20 µM [activator, partial curve]"},
      {"smiles": "COc1ccccc1N1CCN(S(=O)(=O)c2cc(Br)cnc2N)CC1", "Potency": "inconclusive: 3.55 µM [activator, single point]"},
      {"smiles": "NC/C(=N\\O)c1ccc(Cl)cc1Cl", "Potency": "inconclusive: 20 µM [activator, single point]"},
      {"smiles": "O=C(COc1ccccc1)Nc1nnc(-c2ccc3c(c2)CCCC3)o1", "Potency": "inconclusive: 4.47 µM [activator, single point]"},
      {"smiles": "COC(=O)c1ccc(OC(=O)c2cccnc2)cc1", "Potency": "active: 15.8 µM"},
      {"smiles": "Cc1ccc(-n2c(CC#N)n[nH]c2=S)c(C)c1", "Potency": "inactive"},
      {"smiles": "CCOc1ccccc1NC(=O)CSc1nnc(Cn2c(=O)sc3ccccc32)n1C", "Potency": "inconclusive: 12.6 µM [activator, partial curve, poor fit]"},
      {"smiles": "COc1ccc(C(=O)N/N=C/c2sc3ccccc3c2O)cc1", "Potency": "active: 2.82 µM"},
      {"smiles": "CN(C)c1cccc(C(=O)NCCCn2ccc3ccccc32)c1", "Potency": "inactive"},
      {"smiles": "COc1ccccc1C(=O)N1CCN(c2ccccn2)CC1", "Potency": "inconclusive: 2.24 µM [activator, partial curve]"},
      {"smiles": "CC(C)CNC(=O)c1ccc2c(c1)C(=O)N(Cc1ccco1)C2=O", "Potency": "inactive"},
      {"smiles": "CCOC(=O)C1CCN(C(=O)c2cccc(C(=O)N3CCC(C(=O)OCC)CC3)c2)CC1", "Potency": "inconclusive: 12.6 µM [activator, single point]"},
      {"smiles": "CN(C)c1ccc(CNc2ccccn2)cc1", "Potency": "inconclusive: 17.8 µM [activator, single point]"},
      {"smiles": "COc1ccc(CN2CC(=O)N(c3ccc(C)c(C)c3)C2=S)cc1OC", "Potency": "inactive"},
      {"smiles": "CCS(=O)(=O)N1CCN(S(=O)(=O)c2ccc3c(c2)OCCO3)CC1", "Potency": "inconclusive: 1.26 µM [activator, full curve]"},
      {"smiles": "CCc1ccc(C(=O)NNC(=O)c2c(CC)noc2C)cc1", "Potency": "inconclusive: 3.55 µM [activator, partial curve]"},
      {"smiles": "CC(=O)Nc1ccc(NC(=O)C/C(C)=N/NC(N)=S)cc1", "Potency": "active: 11.2 µM"},
      {"smiles": "Cc1ccc(/C=C/C(=O)Nc2ccc([N+](=O)[O-])c(NC(=O)/C=C/c3ccc(C)o3)c2)o1", "Potency": "inconclusive: 2.24 µM [activator, single point]"},
      {"smiles": "Cc1ccc(OCCCCn2cnc3ccccc32)c(C)c1", "Potency": "inconclusive: 20 µM [activator, single point]"},
      {"smiles": "CSCc1nc2sc(C(=O)Nc3nc(C)cs3)c(C)c2c(=O)[nH]1", "Potency": "inactive"},
      {"smiles": "CCn1ncc(Br)c1C(=O)Nc1c(C)nn(Cc2c(F)c(F)c(F)c(F)c2F)c1C", "Potency": "inconclusive: 3.55 µM [activator, single point]"},
      {"smiles": "COCc1nc2ccccc2n1Cc1ccccc1Br", "Potency": "inconclusive: 4.47 µM [activator, partial curve]"},
      {"smiles": "O=C(COc1ccc(S(=O)(=O)NC2CCCCC2)cc1Cl)NCc1ccc2c(c1)OCO2", "Potency": "inconclusive: 3.98 µM [activator, single point]"},
      {"smiles": "CC(C)N(Cc1ccccc1)C(=O)COC(=O)c1ccc(S(=O)(=O)N2CCOCC2)cc1", "Potency": "inactive"},
      {"smiles": "O=C(CN1C(=O)C2CC=CCC2C1=O)Nc1ccc(Br)cc1", "note": "(centres undefined)", "Potency": "inconclusive: 3.98 µM [activator, single point]"},
      {"smiles": "COC(=O)C1=C(c2cccc(OCc3ccccc3)c2)C[C@@H]2CC[C@H]1N2C(=O)NCCCOC(C)C", "Potency": "inconclusive: 3.55 µM [activator, single point]"},
      {"smiles": "Cc1cc(C)n(-c2cc(C(C)(C)C)nc3c(-c4ccc(Cl)cc4)cnn23)n1", "Potency": "inactive"},
      {"smiles": "Cc1cc(Nc2cccc(Cl)c2)nc(NCc2ccccc2)n1", "Potency": "inconclusive: 3.16 µM [activator, full curve]"},
      {"smiles": "COc1ccccc1CCC(=O)Nc1ncc(C)s1", "Potency": "inactive"},
      {"smiles": "Cc1cc(NC(=O)C2C3C(=O)N(Cc4ccc(Cl)cc4)C(C(=O)NC4CCCCC4)C34C=CC2(C)O4)no1", "note": "(centres undefined)", "Potency": "inconclusive: 3.55 µM [activator, single point]"},
      {"smiles": "Cc1ccc(C(=O)NCCc2nnc3ccc(SCC(=O)Nc4c(C)cc(C)cc4C)nn23)cc1", "Potency": "inconclusive: 20 µM [activator, single point]"},
      {"smiles": "CC1CCN(c2ccc(C(=O)O)cc2NS(=O)(=O)c2ccc(Br)cc2)CC1", "Potency": "inconclusive: 7.94 µM [activator, partial curve]"},
      {"smiles": "COc1ccc(N(CC(=O)NCc2cccnc2)S(=O)(=O)c2c(C)nn(C)c2C)cc1", "Potency": "inactive"},
      {"smiles": "CC(Oc1ccc(Cl)cc1Cl)C(=O)Nc1ccc(OCC(=O)O)cc1", "note": "(centres undefined)", "Potency": "inactive"},
      {"smiles": "O=C(CN1c2ccccc2Sc2ccccc21)NNC(=O)Nc1cccc(Cl)c1", "Potency": "inactive"},
      {"smiles": "Cc1cc(-c2ccc(Cl)cc2)n2nc(C)cc2n1", "Potency": "inactive"},
      {"smiles": "CCC(C)NC(=O)CSc1ccc(Cl)cc1", "note": "(centres undefined)", "Potency": "inactive"},
      {"smiles": "O=C(CSc1nnc(Cn2c(=O)sc3ccccc32)n1-c1ccccc1)N1CCCC1", "Potency": "inconclusive: 4.47 µM [activator, single point]"},
      {"smiles": "CC(=O)Nc1cccc(C(=O)Nc2ccccc2C(=O)O)c1", "Potency": "inconclusive: 4.47 µM [activator, single point]"},
      {"smiles": "NC1=NC(=O)/C(=C/c2ccccc2OS(=O)(=O)c2ccccc2)S1", "Potency": "inactive"},
      {"smiles": "COc1ccccc1C(=O)Nc1cccc2c1CCCC2", "Potency": "inconclusive: 20 µM [activator, single point]"},
      {"smiles": "CCc1ccc(CNc2ccc(O)cc2)cc1", "Potency": "inconclusive: 2.51 µM [activator, single point]"},
      {"smiles": "O=C(N/N=C/c1ccoc1)c1ccccc1Br", "Potency": "inconclusive: 0.631 µM [activator, full curve]"},
      {"smiles": "CCOC(=O)c1c(/N=C/C2C(=O)CC(C)(C)CC2=O)sc(C)c1C", "Potency": "active: 3.16 µM"},
      {"smiles": "COc1cccc2cc(-c3ccccc3)c(=O)oc12", "Potency": "inactive"},
      {"smiles": "CCOCCCn1c(N)c(C(=O)Nc2sc3c(c2C(=O)OC)CCCC3)c2nc3ccccc3nc21", "Potency": "inconclusive: 14.1 µM [activator, single point]"},
      {"smiles": "CC1(C)CC(=O)C(C=NCC2CCN(C(=O)Nc3ccc(Cl)c(Cl)c3)CC2)=C(O)C1", "Potency": "inconclusive: 22.4 µM [activator, single point]"},
      {"smiles": "Cc1ccc(NC(=S)NC(=O)C2CCCCC2)c(Br)c1", "Potency": "inconclusive: 7.08 µM [activator, partial curve]"},
      {"smiles": "COc1cccc(C(=O)NC(=S)NCc2ccco2)c1", "Potency": "inconclusive: 20 µM [activator, single point]"}
    ]}
  ]
}
